# Laboratory results: publication PMC6984649
# No constants are given. Whether binding was seen depends on the method and setting. Binding seen in cells or lysates may run through a third protein. These calls come from enrichment with a bait or labelling near it, and not all partners need be listed.
# B1: Acyl-Coenzyme A dehydrogenase, C-4 to C-12 straight chain, isoform CRA_a (protein, UniProt P11310 26-421)
# chain: KANRQREPGLGFSFEFTEQQKEFQATARKFAREEIIPVAAEYDKTGEYPVPLIRRAWELGLMNTHIPENCGGLGLGTFDACLISEELAYGCTGVQTAIEGNSLGQMPIIIAGNDQQKKKYLGRMTEEPLMCAYCVTEPGAGSDVAGIKTKAEKKGDEYIINGQKMWITNGGKANWYFLLARSDPDPKAPANKAFTGFIVEADTPGIQIGRKELNMGQRCSDTRGIVFEDVKVPKENVLIGDGAGFKVAMGAFDKTRPVVAAGAVGLAQRALDEATKYALERKTFGKLLVEHQAISFMLAEMAMKVELARMSYQRAAWEVDSGRRNTYYASIAKAFAGDIANQLATDAVQILGGNGFNTEYPVEKLMRDAKIYQIYEGTSQIQRLIVAREHIDKYKN
# B2: Medium-chain specific acyl-CoA dehydrogenase, mitochondrial (protein, UniProt P11310 26-421)
# chain: B1 chain
# B3: 2ʹ,3ʹ-cyclic-nucleotide 3ʹ-phosphodiesterase (protein, UniProt P09543 1-421)
# chain: MNRGFSRKSHTFLPKIFFRKMSSSGAKDKPELQFPFLQDEDTVATLLECKTLFILRGLPGSGKSTLARVIVDKYRDGTKMVSADAYKITPGARGAFSEEYKRLDEDLAAYCRRRDIRILVLDDTNHERERLEQLFEMADQYQYQVVLVEPKTAWRLDCAQLKEKNQWQLSADDLKKLKPGLEKDFLPLYFGWFLTKKSSETLRKAGQVFLEELGNHKAFKKELRQFVPGDEPREKMDLVTYFGKRPPGVLHCTTKFCDYGKAPGAEEYAQQDVLKKSYSKAFTLTISALFVTPKTTGARVELSEQQLQLWPSDVDKLSPTDNLPRGSRAHITLGCAADVEAVQTGLDLLEILRQEKGGSRGEEVGELSRGKLYSLGNGRWMLTLAKNMEVRAIFTGYYGKGKPVPTQGSRKGGALQSCTII
# B4: 3-hydroxyacyl-CoA dehydrogenase type-2 (Q99714) (protein, UniProt Q99714 1-261)
# chain: MAAACRSVKGLVAVITGGASGLGLATAERLVGQGASAVLLDLPNSGGEAQAKKLGNNCVFAPADVTSEKDVQTALALAKGKFGRVDVAVNCAGIAVASKTYNLKKGQTHTLEDFQRVLDVNLMGTFNVIRLVAGEMGQNEPDQGGQRGVIINTASVAAFEGQVGQAAYSASKGGIVGMTLPIARDLAPIGIRVMTIAPGLFGTPLLTSLPEKVCNFLASQVPFPSRLGDPAEYAHLVQAIIENPFLNGEVIRLDGAIRMQP
# B5: 3-hydroxyacyl-CoA dehydrogenase type-2 (Q5H928) (protein, UniProt Q99714 1-261)
# chain: B4 chain
# B6: Transcription termination factor 2 (protein, UniProt Q9UNY4 1-1162)
# chain: MEEVRCPEHGTFCFLKTGVRDGPNKGKSFYVCRADTCSFVRATDIPVSHCLLHEDFVVELQGLLLPQDKKEYRLFFRCIRSKAEGKRWCGSIPWQDPDSKEHSVSNKSQHASETFHHSSNWLRNPFKVLDKNQEPALWKQLIKGEGEEKKADKKQREKGDQLFDQKKEQKPEMMEKDLSSGLVPKKKQSVVQEKKQEEGAEIQCEAETGGTHKRDFSEIKSQQCQGNELTRPSASSQEKSSGKSQDVQRESEPLREKVTQLLPQNVHSHNSISKPQKGGPLNKEYTNWEAKETKAKDGPSIQATQKSLPQGHFQERPETHSVPAPGGPAAQAAPAAPGLSLGEGREAATSSDDEEEDDVVFVSSKPGSPLLFDSTLDLETKENLQFPDRSVQRKVSPASGVSKKVEPSDPVARRVYLTTQLKQKKSTLASVNIQALPDKGQKLIKQIQELEEVLSGLTLSPEQGTNEKSNSQVPQQSHFTKTTTGPPHLVPPQPLPRRGTQPVGSLELKSACQVTAGGSSQCYRGHTNQDHVHAVWKITSEAIGQLHRSLESCPGETVVAEDPAGLKVPLLLHQKQALAWLLWRESQKPQGGILADDMGLGKTLTMIALILTQKNQEKKEEKEKSTALTWLSKDDSCDFTSHGTLIICPASLIHHWKNEVEKRVNSNKLRVYLYHGPNRDSRARVLSTYDIVITTYSLVAKEIPTNKQEAEIPGANLNVEGTSTPLLRIAWARIILDEAHNVKNPRVQTSIAVCKLQACARWAVTGTPIQNNLLDMYSLLKFLRCSPFDEFNLWRSQVDNGSKKGGERLSILTKSLLLRRTKDQLDSTGRPLVILPQRKFQLHHLKLSEDEETVYNVFFARSRSALQSYLKRHESRGNQSGRSPNNPFSRVALEFGSEEPRHSEAADSPRSSTVHILSQLLRLRQCCCHLSLLKSALDPMELKGEGLVLSLEEQLSALTLSELRDSEPSSTVSLNGTFFKMELFEGMRESTKISSLLAELEAIQRNSASQKSVIVSQWTNMLKVVALHLKKHGLTYATIDGSVNPKQRMDLVEAFNHSRGPQVMLISLLAGGVGLNLTGGNHLFLLDMHWNPSLEDQACDRIYRVGQQKDVVIHRFVCEGTVEEKILQLQEKKKDLAKQVLSGSGESVTKLTLADLRVLFGI
# Target: TAP-tagged ZIKV NS3 (Zika virus)
# Assay: affinity purification with mass spectrometry; tandem affinity purification (TAP): 293T cells transfected with pNTAP-A-NS3 or pNTAP-A control vector, lysed 36 h post-transfection; streptavidin resin, then calmodulin resin; eluted with calmodulin elution buffer, TCA precipitation, mass spectrometry
row,Binder,binding
1,B1,binds
2,B2,binds
3,B3,binds
4,B4,binds
5,B5,binds
6,B6,binds
